Measured values from patent WO2023191079A1.
Results are given in words; binding and its absence hold for the method and conditions named. Some entries that bind do so weakly or less than the wild type. Sequences can lack the tags named with a protein.

Biological target: T1, C-reactive protein (CRP, Oriental Yeast Co., Ltd.) (UniProt P02741)
T1 sequence (looked up): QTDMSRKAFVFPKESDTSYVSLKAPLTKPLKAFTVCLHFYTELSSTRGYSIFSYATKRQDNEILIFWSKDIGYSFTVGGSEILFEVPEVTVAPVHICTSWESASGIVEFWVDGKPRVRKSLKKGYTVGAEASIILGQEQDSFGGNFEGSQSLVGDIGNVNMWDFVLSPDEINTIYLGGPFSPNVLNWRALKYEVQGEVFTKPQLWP
Assay: plate ELISA, scFv-ST immobilised, 100 nM CRP, detection with mouse anti-CRP IgG (4C28 Mab C2) and HRP anti-mouse IgG

B1: scFv-ST (anti-CRP scFv antibody with SpyTag added) (scFv)
scFv: HMASQVQLQQSGAELVKPGASVKLSCTASGFNIKDYYMHWVKQRTEQGLEWIGRIDPEDGETKYAPKFQGKATITADTSSNTAYLQLSSLTSEDTAVYYCARGYYGSEAMDYWGQGTSLTVSSGGGGSGGGGSGGGGSTGSIVMTQSHKFMSTSVGDRVSITCKASQDVNTAVAWYQQKPGQSPKLLIYWASTRHTGVPDRFTGSGFGTDYTLTISSVQAEDLALYYCQQHYSTPWTFGGGTKLEIKRADAAPKLAAAGSGAHIVMVDAYKPTKAEQKLISEEDLNLGGGMRGSHHHHHH
  binding: binds
